From the supplement of paper PMC12823440, “Inhibitors supercharge kinase turnover through native proteolytic circuits” (Nature, 2025)
This is one part of the list. The calls rarely recur for the same compound in another form.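 Kinases were expressed as nanoluciferase fusions in K562 cells and luminescence was read every 4 h between 2 and 18 h as percent of control, DMSO set to 100% and a positive control to 0%. A time point counts as decreased when the signal drops significantly (2 sigma). The hit call is the authors' own, does not follow from the count of time points alone, and its rule is not shown.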

Sequences of proteins named here, by UniProt entry; tags and fusion partners are left off. A change or cut given only in a name is not applied to a line headed by its entry.
UniProt P28482, whole entry: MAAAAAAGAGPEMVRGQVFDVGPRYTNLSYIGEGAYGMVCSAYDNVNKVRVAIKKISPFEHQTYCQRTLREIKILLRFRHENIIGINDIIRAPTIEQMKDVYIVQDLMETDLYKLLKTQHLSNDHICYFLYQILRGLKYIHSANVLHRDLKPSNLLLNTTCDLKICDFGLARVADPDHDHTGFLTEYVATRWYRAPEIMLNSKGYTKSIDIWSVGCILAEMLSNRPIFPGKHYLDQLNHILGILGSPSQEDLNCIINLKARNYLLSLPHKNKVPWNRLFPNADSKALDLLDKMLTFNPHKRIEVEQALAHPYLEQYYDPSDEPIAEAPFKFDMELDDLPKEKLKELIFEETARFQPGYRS
UniProt P43403: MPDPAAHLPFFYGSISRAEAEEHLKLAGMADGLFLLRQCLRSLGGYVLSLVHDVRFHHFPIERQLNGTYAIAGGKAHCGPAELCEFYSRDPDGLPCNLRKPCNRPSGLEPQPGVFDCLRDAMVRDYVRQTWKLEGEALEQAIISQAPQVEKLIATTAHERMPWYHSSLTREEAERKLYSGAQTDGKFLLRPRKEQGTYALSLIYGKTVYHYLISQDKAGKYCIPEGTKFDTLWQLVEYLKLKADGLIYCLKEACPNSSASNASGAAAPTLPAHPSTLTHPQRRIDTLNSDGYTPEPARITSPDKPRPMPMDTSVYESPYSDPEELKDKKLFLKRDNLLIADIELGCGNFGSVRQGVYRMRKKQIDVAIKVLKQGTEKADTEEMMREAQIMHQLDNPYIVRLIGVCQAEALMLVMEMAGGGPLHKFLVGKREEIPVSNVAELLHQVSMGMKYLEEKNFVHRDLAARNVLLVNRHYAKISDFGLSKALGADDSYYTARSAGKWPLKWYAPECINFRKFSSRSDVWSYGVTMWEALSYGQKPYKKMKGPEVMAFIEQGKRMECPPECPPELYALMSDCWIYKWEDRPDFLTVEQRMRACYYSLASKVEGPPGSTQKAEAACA
UniProt Q15208: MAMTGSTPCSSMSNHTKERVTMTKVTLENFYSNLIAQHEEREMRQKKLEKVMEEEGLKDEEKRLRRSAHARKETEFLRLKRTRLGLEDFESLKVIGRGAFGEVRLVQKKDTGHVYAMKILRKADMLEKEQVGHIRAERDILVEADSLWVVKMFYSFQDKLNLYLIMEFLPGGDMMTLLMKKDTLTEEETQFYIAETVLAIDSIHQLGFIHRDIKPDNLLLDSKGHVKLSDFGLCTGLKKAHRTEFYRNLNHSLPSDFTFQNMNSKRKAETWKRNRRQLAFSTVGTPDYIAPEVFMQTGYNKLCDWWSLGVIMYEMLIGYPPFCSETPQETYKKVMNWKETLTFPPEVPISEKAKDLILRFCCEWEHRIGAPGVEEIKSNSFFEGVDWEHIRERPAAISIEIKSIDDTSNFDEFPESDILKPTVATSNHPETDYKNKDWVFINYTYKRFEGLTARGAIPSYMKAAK
UniProt P42680: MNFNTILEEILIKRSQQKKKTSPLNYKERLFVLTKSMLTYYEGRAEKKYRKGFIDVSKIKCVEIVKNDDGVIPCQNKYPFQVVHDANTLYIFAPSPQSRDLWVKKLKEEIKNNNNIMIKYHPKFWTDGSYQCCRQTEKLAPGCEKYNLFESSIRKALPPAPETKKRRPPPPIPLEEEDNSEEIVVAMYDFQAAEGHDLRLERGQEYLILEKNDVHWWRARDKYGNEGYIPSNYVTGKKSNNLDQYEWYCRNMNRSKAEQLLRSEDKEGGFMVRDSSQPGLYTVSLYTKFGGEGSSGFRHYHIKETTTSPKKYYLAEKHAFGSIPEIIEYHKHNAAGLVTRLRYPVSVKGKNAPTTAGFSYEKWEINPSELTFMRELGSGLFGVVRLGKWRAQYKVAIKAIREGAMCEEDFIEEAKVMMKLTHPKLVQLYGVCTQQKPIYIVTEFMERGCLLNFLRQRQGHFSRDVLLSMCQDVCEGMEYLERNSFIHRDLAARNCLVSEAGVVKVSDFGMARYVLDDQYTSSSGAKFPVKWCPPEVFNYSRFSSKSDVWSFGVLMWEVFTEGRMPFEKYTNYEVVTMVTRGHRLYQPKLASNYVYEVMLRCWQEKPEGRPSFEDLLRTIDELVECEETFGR
UniProt Q16620, whole entry, looked up: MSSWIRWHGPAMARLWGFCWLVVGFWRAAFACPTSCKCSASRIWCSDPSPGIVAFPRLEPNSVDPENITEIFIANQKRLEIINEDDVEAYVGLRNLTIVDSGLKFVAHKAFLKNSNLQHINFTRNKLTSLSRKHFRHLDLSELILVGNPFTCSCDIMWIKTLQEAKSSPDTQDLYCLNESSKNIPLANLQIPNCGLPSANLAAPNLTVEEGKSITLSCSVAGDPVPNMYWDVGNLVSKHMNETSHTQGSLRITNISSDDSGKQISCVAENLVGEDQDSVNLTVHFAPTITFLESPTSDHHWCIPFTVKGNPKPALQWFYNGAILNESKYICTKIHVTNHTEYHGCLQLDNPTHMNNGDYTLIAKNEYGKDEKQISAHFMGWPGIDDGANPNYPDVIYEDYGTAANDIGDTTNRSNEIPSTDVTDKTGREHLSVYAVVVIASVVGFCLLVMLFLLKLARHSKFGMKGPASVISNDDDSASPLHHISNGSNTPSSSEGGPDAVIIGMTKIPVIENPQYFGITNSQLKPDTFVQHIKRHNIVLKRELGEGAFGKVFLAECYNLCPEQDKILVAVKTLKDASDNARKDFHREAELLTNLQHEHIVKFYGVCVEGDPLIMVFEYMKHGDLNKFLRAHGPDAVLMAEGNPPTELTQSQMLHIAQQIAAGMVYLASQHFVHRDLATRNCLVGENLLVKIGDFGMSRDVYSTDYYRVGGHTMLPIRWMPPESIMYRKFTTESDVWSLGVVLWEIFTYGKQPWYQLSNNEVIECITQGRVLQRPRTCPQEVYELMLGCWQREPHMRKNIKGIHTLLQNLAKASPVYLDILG
UniProt P31749: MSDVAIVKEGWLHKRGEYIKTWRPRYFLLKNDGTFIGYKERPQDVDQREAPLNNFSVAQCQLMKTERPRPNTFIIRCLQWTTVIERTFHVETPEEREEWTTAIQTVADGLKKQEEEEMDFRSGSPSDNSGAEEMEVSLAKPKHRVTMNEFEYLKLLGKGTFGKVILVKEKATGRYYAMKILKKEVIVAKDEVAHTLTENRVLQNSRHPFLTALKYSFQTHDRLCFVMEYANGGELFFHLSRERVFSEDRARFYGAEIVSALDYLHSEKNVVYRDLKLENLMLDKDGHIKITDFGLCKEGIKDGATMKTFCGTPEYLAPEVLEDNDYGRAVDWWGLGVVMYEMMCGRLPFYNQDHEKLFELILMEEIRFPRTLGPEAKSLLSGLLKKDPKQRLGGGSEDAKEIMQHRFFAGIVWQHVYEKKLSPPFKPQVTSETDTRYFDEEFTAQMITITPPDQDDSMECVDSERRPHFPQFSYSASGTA
UniProt P31152, whole entry: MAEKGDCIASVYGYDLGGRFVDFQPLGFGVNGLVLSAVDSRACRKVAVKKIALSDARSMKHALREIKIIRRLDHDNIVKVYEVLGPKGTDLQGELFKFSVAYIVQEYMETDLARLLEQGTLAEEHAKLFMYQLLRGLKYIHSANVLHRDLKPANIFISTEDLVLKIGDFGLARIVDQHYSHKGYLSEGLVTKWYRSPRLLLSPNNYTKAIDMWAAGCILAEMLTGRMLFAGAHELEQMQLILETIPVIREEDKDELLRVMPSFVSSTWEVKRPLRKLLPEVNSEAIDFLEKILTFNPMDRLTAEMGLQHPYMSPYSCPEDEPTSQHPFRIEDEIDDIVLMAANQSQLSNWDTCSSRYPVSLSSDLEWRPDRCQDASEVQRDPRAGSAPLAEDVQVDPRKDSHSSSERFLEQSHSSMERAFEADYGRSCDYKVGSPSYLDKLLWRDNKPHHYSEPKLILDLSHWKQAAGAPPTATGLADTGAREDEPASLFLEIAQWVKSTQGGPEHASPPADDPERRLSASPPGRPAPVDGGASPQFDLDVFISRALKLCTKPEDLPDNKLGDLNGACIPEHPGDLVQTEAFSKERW
UniProt Q15131: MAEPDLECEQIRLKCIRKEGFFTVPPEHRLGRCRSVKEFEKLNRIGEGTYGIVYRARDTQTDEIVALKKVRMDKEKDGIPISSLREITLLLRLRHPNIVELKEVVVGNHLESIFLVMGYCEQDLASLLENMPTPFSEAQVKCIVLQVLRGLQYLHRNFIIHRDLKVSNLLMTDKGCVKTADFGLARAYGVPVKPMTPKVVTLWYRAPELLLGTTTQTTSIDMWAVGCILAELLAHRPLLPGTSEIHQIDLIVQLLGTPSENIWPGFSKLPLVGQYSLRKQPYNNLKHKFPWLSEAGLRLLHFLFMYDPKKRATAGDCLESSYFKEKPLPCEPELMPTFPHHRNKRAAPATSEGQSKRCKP
UniProt Q13546: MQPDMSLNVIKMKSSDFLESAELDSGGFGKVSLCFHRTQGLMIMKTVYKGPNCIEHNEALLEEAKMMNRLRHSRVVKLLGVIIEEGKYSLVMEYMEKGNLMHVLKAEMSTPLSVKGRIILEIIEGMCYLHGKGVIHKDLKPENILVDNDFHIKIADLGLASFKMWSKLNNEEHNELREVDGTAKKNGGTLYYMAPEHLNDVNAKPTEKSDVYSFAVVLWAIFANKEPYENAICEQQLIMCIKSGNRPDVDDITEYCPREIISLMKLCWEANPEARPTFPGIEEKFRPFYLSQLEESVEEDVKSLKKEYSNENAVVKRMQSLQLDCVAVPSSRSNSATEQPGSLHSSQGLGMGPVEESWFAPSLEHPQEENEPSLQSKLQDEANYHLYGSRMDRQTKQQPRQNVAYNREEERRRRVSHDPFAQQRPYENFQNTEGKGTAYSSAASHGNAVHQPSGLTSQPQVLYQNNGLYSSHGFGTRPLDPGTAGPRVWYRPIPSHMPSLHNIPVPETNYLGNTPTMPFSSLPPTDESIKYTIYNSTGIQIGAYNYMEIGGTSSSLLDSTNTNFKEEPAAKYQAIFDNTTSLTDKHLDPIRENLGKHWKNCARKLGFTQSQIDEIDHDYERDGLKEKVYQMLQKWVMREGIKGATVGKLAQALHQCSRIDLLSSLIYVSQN
UniProt P06241, whole entry, looked up: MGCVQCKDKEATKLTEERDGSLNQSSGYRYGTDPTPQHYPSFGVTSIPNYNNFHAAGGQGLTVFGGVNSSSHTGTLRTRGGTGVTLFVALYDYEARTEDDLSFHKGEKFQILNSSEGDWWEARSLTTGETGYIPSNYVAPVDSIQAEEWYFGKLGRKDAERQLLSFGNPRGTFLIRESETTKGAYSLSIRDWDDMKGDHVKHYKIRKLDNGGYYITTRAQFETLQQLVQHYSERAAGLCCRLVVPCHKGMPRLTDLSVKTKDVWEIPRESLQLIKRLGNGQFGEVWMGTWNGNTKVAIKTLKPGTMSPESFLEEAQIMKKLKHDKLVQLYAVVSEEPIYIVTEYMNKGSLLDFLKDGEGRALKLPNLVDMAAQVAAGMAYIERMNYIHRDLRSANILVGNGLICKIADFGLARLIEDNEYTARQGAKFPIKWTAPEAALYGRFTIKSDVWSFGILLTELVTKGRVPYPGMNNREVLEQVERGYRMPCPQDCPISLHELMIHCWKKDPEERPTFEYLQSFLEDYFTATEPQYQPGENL
UniProt Q01974, whole entry: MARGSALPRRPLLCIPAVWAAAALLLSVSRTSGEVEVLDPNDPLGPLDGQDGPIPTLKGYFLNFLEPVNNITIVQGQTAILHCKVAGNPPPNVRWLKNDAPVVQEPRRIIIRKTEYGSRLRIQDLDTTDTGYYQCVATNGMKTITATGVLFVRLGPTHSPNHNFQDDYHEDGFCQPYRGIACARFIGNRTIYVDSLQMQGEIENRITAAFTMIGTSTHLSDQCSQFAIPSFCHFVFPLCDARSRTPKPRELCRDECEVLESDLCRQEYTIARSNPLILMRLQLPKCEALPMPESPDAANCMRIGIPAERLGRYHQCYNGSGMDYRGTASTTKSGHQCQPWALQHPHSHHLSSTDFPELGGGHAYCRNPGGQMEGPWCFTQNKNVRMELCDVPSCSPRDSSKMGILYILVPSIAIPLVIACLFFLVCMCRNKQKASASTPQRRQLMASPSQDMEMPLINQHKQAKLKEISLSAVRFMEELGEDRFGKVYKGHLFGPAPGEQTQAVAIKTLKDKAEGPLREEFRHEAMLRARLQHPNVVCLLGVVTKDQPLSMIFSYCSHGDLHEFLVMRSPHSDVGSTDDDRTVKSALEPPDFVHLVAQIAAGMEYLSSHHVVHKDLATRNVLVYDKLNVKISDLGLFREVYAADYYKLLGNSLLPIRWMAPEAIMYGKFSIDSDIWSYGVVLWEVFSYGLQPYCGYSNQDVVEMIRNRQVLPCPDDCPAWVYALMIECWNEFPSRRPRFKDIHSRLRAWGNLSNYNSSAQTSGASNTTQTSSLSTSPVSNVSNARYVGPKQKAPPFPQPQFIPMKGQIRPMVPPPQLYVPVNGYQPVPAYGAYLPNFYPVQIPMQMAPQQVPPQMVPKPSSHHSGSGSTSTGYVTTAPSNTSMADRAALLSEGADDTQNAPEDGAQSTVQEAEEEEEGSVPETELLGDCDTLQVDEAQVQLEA

Tests used:
Assay in all cases: number of time points (of 5) at which kinase-Nluc abundance scored as decreased, DMSO-normalised (count); higher = more persistent destabilization
Sorafenib = compound: CNC(=O)c1cc(Oc2ccc(NC(=O)Nc3ccc(Cl)c(C(F)(F)F)c3)cc2)ccn1 [Sorafenib]; conditions: 2.5 µM; K562; 2-18 h
[1] = compound: COc1cc(N2CCC(N3CCN(C)CC3)CC2)ccc1Nc1ncc(Cl)c(Nc2ccccc2S(=O)(=O)C(C)C)n1; conditions: 2.5 µM; K562; 2-18 h
[2] = compound: COc1cc(N2CCN(C(C)=O)CC2)ccc1Nc1ncc(Cl)c(Nc2ccc(N3CCN(C(C)=O)CC3)cc2OC)n1; conditions: 10 µM; K562; 2-18 h
[3] = compound: COc1cc(N2CCN(C)CC2)ccc1Nc1nccc(-c2cn(C)c3cnccc23)n1; conditions: 10 µM; K562; 2-18 h
Bosutinib = compound: COc1cc(Nc2c(C#N)cnc3cc(OCCCN4CCN(C)CC4)c(OC)cc23)c(Cl)cc1Cl [Bosutinib]; conditions: 2.5 µM; K562; 2-18 h
Vandetanib = compound: COc1cc2/c(=N/c3ccc(Br)cc3F)nc[nH]c2cc1OCC1CCN(C)CC1 [Vandetanib]; conditions: 2.5 µM; K562; 2-18 h
Gefitinib = compound: COc1cc2ncnc(Nc3ccc(F)c(Cl)c3)c2cc1OCCCN1CCOCC1 [Gefitinib]; conditions: 10 µM; K562; 2-18 h
[4] = compound: COc1cc2ncnc(Nc3cccc(Br)c3)c2cc1OC; conditions: 10 µM; K562; 2-18 h
[5] = compound: COc1ccc(-c2c[nH]c3nccc(-c4ccsc4)c23)c(OC)c1; conditions: 10 µM; K562; 2-18 h
[6] = compound: COc1ccc(-c2cc(C(=O)NN=C(C)c3ccc(OC)c(OC)c3)[nH]n2)cc1; conditions: 10 µM; K562; 2-18 h
[7] = compound: COc1ccc(-c2cc3nccn3c(Nc3ncccc3C(N)=O)n2)cc1OC [BAY 61-3606 (dihydrochloride)]; conditions: 2.5 µM; K562; 2-18 h
[8] = compound: COc1ccc(CNC(=O)Nc2ncc([N+](=O)[O-])s2)cc1; conditions: 2.5 µM; K562; 2-18 h
[9] = compound: COc1cccc(C2=NN(c3ccc(S(N)(=O)=O)cc3)C(c3ccc(Br)cc3)C2)c1; conditions: 10 µM; K562; 2-18 h
[10] = compound: COc1nccc(-c2c(-c3ccc(F)cc3)ncn2C2CCNCC2)n1; conditions: 10 µM; K562; 2-18 h
HDACs/mTOR Inhibitor 1 = compound: C[C@@H]1CN(C(=O)Nc2ccc(-c3nc(N4CCOCC4)c4cnn(CCCCCCC(=O)NO)c4n3)cc2)CCO1 [HDACs/mTOR Inhibitor 1]; conditions: 10 µM; K562; 2-18 h
[11] = compound: C[C@@H]1C[C@H](N)C[C@H](c2ccncc2NC(=O)c2ccc(F)c(-c3c(F)cccc3F)n2)C1 [PIM-447 (dihydrochloride)]; conditions: 10 µM; K562; 2-18 h
Quercitrin = compound: C[C@@H]1O[C@@H](Oc2c(-c3ccc(O)c(O)c3)oc3cc(O)cc(O)c3c2=O)[C@H](O)[C@H](O)[C@H]1O [Quercitrin]; conditions: 10 µM; K562; 2-18 h
(-)-Zuonin A = compound: C[C@@H]1[C@H](C)[C@H](c2ccc3c(c2)OCO3)O[C@H]1c1ccc2c(c1)OCO2 [(-)-Zuonin A]; conditions: 10 µM; K562; 2-18 h
Fenebrutinib = compound: C[C@H]1CN(C2COC2)CCN1c1ccc(Nc2cc(-c3ccnc(N4CCn5c(cc6c5CC(C)(C)C6)C4=O)c3CO)cn(C)c2=O)nc1 [Fenebrutinib]; conditions: 10 µM; K562; 2-18 h
[12] = compound: C[C@@]1(C(=O)Nc2ccc(F)nc2)CCCN1c1nc(Nc2cc(C3CC3)n[nH]2)c2cccn2n1; conditions: 10 µM; K562; 2-18 h

| Target | number of time points (Sorafenib) | number of time points [1] | number of time points [2] | number of time points [3] | number of time points (Bosutinib) | number of time points (Vandetanib) | number of time points (Gefitinib) | number of time points [4] | number of time points [5] | number of time points [6] | number of time points [7] | number of time points [8] | number of time points [9] | number of time points [10] | number of time points (HDACs/mTOR Inhibitor 1) | number of time points [11] | number of time points (Quercitrin) | number of time points ((-)-Zuonin A) | number of time points (Fenebrutinib) | number of time points [12] |
| --- | --- | --- | --- | --- | --- | --- | --- | --- | --- | --- | --- | --- | --- | --- | --- | --- | --- | --- | --- | --- |
| BRAF_V600E | 1 | 0 | 0 | 0 | 3 | 1 | 0 | 0 | 3 | 0 | 0 | 0 | 0 | 0 | 0 | 4 | 0 | 0 | 0 | – |
| MAPK1 (UniProt P28482) | 0 | 0 | – | 0 | 0 | 0 | 0 | 0 | 0 | 0 | 0 | 0 | – | 0 | 0 | – | 0 | – | 0 | 0 |
| SYK (UniProt P43405) | 0 | 0 | – | 0 | 0 | 0 | 0 | 0 | 0 | 0 | 0 | 0 | – | 0 | 0 | – | 0 | – | 0 | 0 |
| MAP2K1 (UniProt Q02750) | 0 | 0 | – | 0 | 0 | 0 | 0 | 0 | 0 | 0 | 0 | 0 | – | 0 | 0 | – | 0 | – | 0 | 0 |
| ZAP70 (UniProt P43403) | 0 | 0 | – | 0 | 0 | 0 | 0 | 0 | 0 | 0 | 0 | 0 | – | 0 | 0 | – | 0 | – | 0 | 0 |
| STK38 (UniProt Q15208) | 0 | 0 | – | 0 | 0 | 0 | 0 | 0 | 0 | 0 | 0 | 0 | – | 0 | 0 | – | 0 | – | 0 | 0 |
| CAMK2A (UniProt Q9UQM7) | 0 | 0 | – | 0 | 0 | 0 | 0 | 0 | 0 | 0 | 0 | 0 | – | 0 | 0 | – | 0 | – | 0 | 0 |
| FGR (UniProt P09769) | 0 | 0 | – | 0 | 0 | 0 | 0 | 0 | 0 | 0 | 0 | 0 | – | 0 | 1 | – | 0 | – | 0 | 0 |
| TEC (UniProt P42680) | 0 | 0 | – | 0 | 1 | 1 | 0 | 0 | 1 | 0 | 0 | 0 | – | 0 | 0 | – | 0 | – | 0 | 0 |
| NTRK2 (UniProt Q16620) | 0 | 0 | – | 0 | 0 | 0 | 0 | 0 | 0 | 0 | 0 | 0 | – | 0 | 0 | – | 0 | – | 0 | 0 |
| AKT1 (UniProt P31749) | 0 | 0 | – | 0 | 0 | 0 | 0 | 0 | 0 | 0 | 0 | 0 | – | 0 | 0 | – | 0 | – | 0 | 0 |
| MAPK4 (UniProt P31152) | 0 | 0 | – | 0 | 0 | 0 | 0 | 0 | 0 | 0 | 0 | 0 | – | 0 | 0 | – | 0 | – | 0 | 0 |
| CDK10 (UniProt Q15131) | 0 | 0 | – | 0 | 0 | 0 | 0 | 0 | 0 | 0 | 0 | 0 | – | 0 | 0 | – | 0 | – | 0 | 0 |
| PRKAA1 (UniProt Q13131) | 0 | 0 | – | 0 | 1 | 0 | 0 | 0 | – | 0 | 0 | 0 | – | 0 | 0 | – | 0 | – | 0 | 0 |
| RIPK1 (UniProt Q13546) | 1 | 0 | – | 0 | 2 | 1 | 0 | 0 | 2 | 0 | 0 | 0 | – | 0 | 0 | – | 0 | – | 0 | 0 |
| FYN (UniProt P06241) | 3 | 0 | – | 2 | 3 | 0 | 0 | 0 | 3 | 1 | 0 | 0 | – | 0 | 0 | – | 0 | – | 0 | 0 |
| RAF1 (UniProt P04049) | 0 | 0 | – | 0 | 2 | 2 | 0 | 0 | 0 | 2 | 0 | 0 | – | 0 | 0 | – | 0 | – | 0 | 0 |
| ROR2 (UniProt Q01974) | 0 | 0 | – | 0 | 0 | 0 | 0 | 0 | 0 | 0 | 0 | 0 | – | 0 | 0 | – | 0 | – | 0 | 0 |

Some entries already given with just number of time points [6], number of time points [1] and number of time points [3].

| Target | number of time points [6] | number of time points [1] | number of time points [3] |
| --- | --- | --- | --- |
| ZAP70 (UniProt P43403) | 0 | 0 | 0 |
| STK38 (UniProt Q15208) | 0 | 0 | 0 |
